{"sequences": {"note": "The chains behind the UniProt entries cited, without tags or fusion partners.", "UniProt O95922": "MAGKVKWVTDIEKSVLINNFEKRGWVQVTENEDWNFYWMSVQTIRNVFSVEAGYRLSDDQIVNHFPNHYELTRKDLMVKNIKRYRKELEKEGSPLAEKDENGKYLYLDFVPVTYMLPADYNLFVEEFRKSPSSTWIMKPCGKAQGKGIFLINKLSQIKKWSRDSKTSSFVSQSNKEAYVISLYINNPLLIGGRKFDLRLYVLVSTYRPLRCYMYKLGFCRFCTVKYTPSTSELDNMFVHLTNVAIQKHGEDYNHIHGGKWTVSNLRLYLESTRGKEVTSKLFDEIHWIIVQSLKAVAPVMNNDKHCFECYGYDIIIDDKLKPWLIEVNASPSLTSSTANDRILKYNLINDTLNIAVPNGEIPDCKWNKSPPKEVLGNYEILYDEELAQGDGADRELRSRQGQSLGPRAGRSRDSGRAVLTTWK"}, "source": "paper PMC4742162", "molecules": {"B1": {"name": "V5-tagged SEPT9_i1 (protein, UniProt Q9UHD8 1-586)", "chain": "MKKSYSGGTRTSSGRLRRLGDSSGPALKRSFEVEEVETPNSTPPRRVQTPLLRATVASSTQKFQDLGVKNSEPSARHVDSLSQRSPKASLRRVELSGPKAAEPVSRRTELSIDISSKQVENAGAIGPSRFGLKRAEVLGHKTPEPAPRRTEITIVKPQESAHRRMEPPASKVPEVPTAPATDAAPKRVEIQMPKPAEAPTAPSPAQTLENSEPAPVSQLQSRLEPKPQPPVAEATPRSQEATEAAPSCVGDMADTPRDAGLKQAPASRNEKAPVDFGYVGIDSILEQMRRKAMKQGFEFNIMVVGQSGLGKSTLINTLFKSKISRKSVQPTSEERIPKTIEIKSITHDIEEKGVRMKLTVIDTPGFGDHINNENCWQPIMKFINDQYEKYLQEEVNINRKKRIPDTRVHCCLYFIPATGHSLRPLDIEFMKRLSKVVNIVPVIAKADTLTLEERVHFKQRITADLLSNGIDVYPQKEFDEDSEDRLVNEKFREMIPFAVVGSDHEYQVNGKRILGRKTKWGTIEVENTTHCEFAYLRDLLIRTHMQNIKDITSSIHFEAYRVKRLNEGSSAMANGMEEKEPEAPEM"}}, "key": {"[1]": {"biological_target": "T1, YFP-tagged SEPT2 (UniProt Q15019)", "T1 sequence": "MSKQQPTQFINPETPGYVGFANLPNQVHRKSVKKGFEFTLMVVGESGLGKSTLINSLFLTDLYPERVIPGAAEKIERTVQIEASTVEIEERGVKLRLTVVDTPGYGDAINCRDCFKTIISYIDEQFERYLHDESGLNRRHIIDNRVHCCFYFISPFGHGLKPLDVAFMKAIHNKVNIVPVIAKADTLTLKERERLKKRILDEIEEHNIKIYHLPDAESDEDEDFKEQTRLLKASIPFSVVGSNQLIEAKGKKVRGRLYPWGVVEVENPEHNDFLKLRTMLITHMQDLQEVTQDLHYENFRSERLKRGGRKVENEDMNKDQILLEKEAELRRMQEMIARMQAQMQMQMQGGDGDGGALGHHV", "experiment": "condition: only in Ts cells (septin filaments not associated with MTs); co-IP; MT fractions of transfected Taxol-sensitive (Ts) cells incubated with anti-GFP/YFP-coated beads (GFP Trap_M); same buffer and washes as for Tr cells; immunoblot"}, "[2]": {"biological_target": "T2, endogenous SEPT2 (human (endogenous in MDA-MB 231)) (UniProt Q15019)", "T2 sequence": "T1 sequence", "experiment": "co-IP; MT fractions of Tr cells incubated with rabbit anti-SEPT2 antibody on protein G sepharose beads (non-specific serum as control); 10 mM Tris pH 7.5, 150 mM NaCl, 5 mM EDTA, 1% CHAPS; 4°C, 16 h; last two washes at 300 mM salt; immunoblot"}, "[3]": {"biological_target": "T1, YFP-tagged SEPT2", "experiment": "co-IP; MT fractions (MTs depolymerized by calcium) of transfected Tr cells incubated with anti-GFP/YFP-coated beads (GFP Trap_M); 10 mM Tris pH 7.5, 150 mM NaCl, 5 mM EDTA, 1% CHAPS; 4°C, 16 h; last two washes at 300 mM salt; immunoblot"}, "[4]": {"biological_target": "T3, YFP-tagged TTLL11 (UniProt A4Q9F4)", "T3 sequence": "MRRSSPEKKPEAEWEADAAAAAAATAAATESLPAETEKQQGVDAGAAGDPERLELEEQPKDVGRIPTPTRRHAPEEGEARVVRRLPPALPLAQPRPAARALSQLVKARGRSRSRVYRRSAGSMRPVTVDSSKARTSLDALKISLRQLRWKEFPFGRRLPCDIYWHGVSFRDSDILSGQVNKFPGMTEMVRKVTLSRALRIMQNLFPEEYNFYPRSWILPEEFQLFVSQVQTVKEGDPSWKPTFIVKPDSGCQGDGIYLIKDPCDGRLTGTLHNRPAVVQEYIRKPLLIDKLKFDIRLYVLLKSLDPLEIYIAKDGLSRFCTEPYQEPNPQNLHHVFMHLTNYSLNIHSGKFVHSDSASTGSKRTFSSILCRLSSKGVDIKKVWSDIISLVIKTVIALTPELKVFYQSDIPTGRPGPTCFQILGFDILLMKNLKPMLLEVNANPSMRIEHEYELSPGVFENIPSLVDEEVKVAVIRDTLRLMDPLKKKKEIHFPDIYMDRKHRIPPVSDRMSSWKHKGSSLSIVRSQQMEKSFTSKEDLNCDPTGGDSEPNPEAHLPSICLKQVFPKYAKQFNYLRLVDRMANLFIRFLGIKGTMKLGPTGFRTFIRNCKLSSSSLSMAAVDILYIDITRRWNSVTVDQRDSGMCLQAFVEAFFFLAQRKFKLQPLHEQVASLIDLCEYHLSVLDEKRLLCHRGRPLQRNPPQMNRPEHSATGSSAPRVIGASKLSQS", "experiment": "co-IP; MT fractions (MTs depolymerized by calcium) of transfected Tr cells incubated with anti-GFP/YFP-coated beads (GFP Trap_M); 10 mM Tris pH 7.5, 150 mM NaCl, 5 mM EDTA, 1% CHAPS; 4°C, 16 h; last two washes at 300 mM salt; immunoblot"}}, "note": "These are yes or no findings as the source states them, for the method shown. Binding seen in cells or lysates may run through a third protein. Some entries that bind do so weakly or less than the wild type. For some of these results: Sequences can lack the tags named with a protein.", "data": [{"molecule": "TTLL1 (from UniProt O95922 1-423) (enzyme)", "values": [{"measurement": "binding", "setting": "[1]", "result": "no binding"}, {"measurement": "binding", "setting": "[2]", "result": "binds"}, {"measurement": "binding", "setting": "[3]", "result": "binds"}]}, {"molecule": "B1", "values": [{"measurement": "binding", "setting": "[4]", "result": "binds"}]}]}
